Data as given in PubChem BioAssay AID1224828 (NIAID, 2016)
Shown is an unselected part of about 17,000 reagents. Of all reagents, 762 (4.5%) were called active. 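Active calls include both raised and lowered p65 entry, mostly lowered; wells with fewer than 50 cells lack a z-score.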 Raw values are not corrected between plates. Reagents against one gene are numbered here.

Aim: 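Find genes required for NF-kappaB p65 moving into the nucleus after LPS in mouse macrophages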 (primary screen)
System: mouse RAW264.7 G9 macrophage reporter cells (GFP-p65, Tnf promoter-mCherry)
Reagent: siRNA pool against mouse genes, 100 nM
Timing: 2 days siRNA transfection, then 40 min LPS before fixation
Treatment: LPS (Salmonella minnesota R595) at 10 ng/ml
Measurement: 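Imaged p65 nuclear translocation ratio, normalised to the plate median, converted to robust z-scores and averaged across two replicates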
Scale: p65 translocation robust z-score: higher = more nuclear NF-kappaB p65 after LPS than the plate median; nuclear/cytoplasmic p65 ratio: higher = more nuclear NF-kappaB p65
Active means: 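Called active when z exceeds 3.3 or falls under -1.56 (median of Tlr4 controls), giving activity score of at least 50; no calls for control wells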
Meaning of the calls: active = hit (p65 shift raised or lowered); inactive = no clear change

| gene knocked down | pool no. | p65 translocation robust z-score | nuclear/cytoplasmic p65 ratio, rep 1 | nuclear/cytoplasmic p65 ratio, rep 2 | low cell count flag | call |
| --- | --- | --- | --- | --- | --- | --- |
| Eif3i (eukaryotic translation initiation factor 3, subunit I) | 1 | -0.98 | 1.4 | 1.18 | enough cells to score | inactive |
| Or9g19 (olfactory receptor family 9 subfamily G member 19) | 1 | -0.53 | 1.66 | 1.43 | enough cells to score | inactive |
| Gimap7 (GTPase, IMAP family member 7) | 1 | -0.91 | 1.47 | 1.27 | enough cells to score | inactive |
| Gmppa (GDP-mannose pyrophosphorylase A) | 1 | 0.29 | 1.15 | 1.6 | enough cells to score | inactive |
| Gip (gastric inhibitory polypeptide) | 1 | -0.75 | 1.33 | 1.28 | enough cells to score | inactive |
| Rars2 (arginyl-tRNA synthetase 2, mitochondrial) | 1 | – | 1.27 | 1.21 | fewer than 50 cells per well; well left out of scoring | inactive |
| Mrpl12 (mitochondrial ribosomal protein L12) | 1 | -1.18 | 1.67 | 1.35 | enough cells to score | inactive |
| Pacrgl (PARK2 co-regulated-like) | 1 | – | 1.57 | 1.57 | fewer than 50 cells per well; well left out of scoring | inactive |
| Pcyt1b (phosphate cytidylyltransferase 1, choline, beta isoform) | 1 | – | 1.33 | 1.28 | fewer than 50 cells per well; well left out of scoring | inactive |
| Crmp1 (collapsin response mediator protein 1) | 1 | 0.37 | 1.57 | 1.9 | enough cells to score | inactive |
| Gpatch2l (G patch domain containing 2 like) | 1 | – | 1.6 | 1.23 | fewer than 50 cells per well; well left out of scoring | inactive |
| Gstp1 (glutathione S-transferase, pi 1) | 1 | -0.17 | 1.27 | 1.49 | enough cells to score | inactive |
| Higd1a (HIG1 domain family, member 1A) | 1 | -0.43 | 1.32 | 1.38 | enough cells to score | inactive |
| Dennd4a (DENN domain containing 4A) | 1 | 0.96 | 1.63 | 1.89 | enough cells to score | inactive |
| Dennd4a (DENN domain containing 4A) | 2 | -0.45 | 1.56 | 1.37 | enough cells to score | inactive |
| Krr1 (KRR1 small subunit processome component) | 1 | -1.64 | 1.18 | 1.2 | enough cells to score | active |
| Nop58 (NOP58 ribonucleoprotein) | 1 | 0.32 | 1.77 | 1.57 | enough cells to score | inactive |
| Ess2 (ess-2 splicing factor) | 1 | 0.63 | 1.66 | 1.57 | enough cells to score | inactive |
| Or4b1 (olfactory receptor family 4 subfamily B member 1) | 1 | 1.52 | 1.9 | 1.57 | enough cells to score | inactive |
| Wdr20 (WD repeat domain 20) | 1 | -1.78 | 1.13 | 1.07 | enough cells to score | active |
| Fbxw5 (F-box and WD-40 domain protein 5) | 1 | 1.73 | 1.8 | 1.74 | enough cells to score | inactive |
| Ttc39a (tetratricopeptide repeat domain 39A) | 1 | – | 1.39 | 1.31 | fewer than 50 cells per well; well left out of scoring | inactive |
| Srxn1 (sulfiredoxin 1 homolog (S. cerevisiae)) | 1 | 0.04 | 1.79 | 1.47 | enough cells to score | inactive |
| Cirbp (cold inducible RNA binding protein) | 1 | -0.67 | 1.24 | 1.29 | enough cells to score | inactive |
| Ifi44l (interferon-induced protein 44 like) | 1 | – | 1.62 | 1.32 | fewer than 50 cells per well; well left out of scoring | inactive |
| Or6c1 (olfactory receptor family 6 subfamily C member 1) | 1 | – | 1.36 | 0 | fewer than 50 cells per well; well left out of scoring | inactive |
| Dnajc15 (DnaJ heat shock protein family (Hsp40) member C15) | 1 | 2.26 | 1.77 | 1.89 | enough cells to score | inactive |
| Apbb1ip | 1 | 0.61 | 1.62 | 1.54 | enough cells to score | inactive |
| Krtap19-9b (keratin associated protein 19-9B) | 1 | 0.94 | 1.49 | 1.72 | enough cells to score | inactive |
| Prss2 (serine protease 2) | 1 | -0.52 | 1.3 | 1.17 | enough cells to score | inactive |
| Btn2a2 (butyrophilin, subfamily 2, member A2) | 1 | -0.61 | 1.29 | 1.5 | enough cells to score | inactive |
| Prrg2 (proline-rich Gla (G-carboxyglutamic acid) polypeptide 2) | 1 | – | 1.27 | 1.21 | fewer than 50 cells per well; well left out of scoring | inactive |
| Dmrtc2 | 1 | -2.02 | 1.18 | 1.21 | enough cells to score | active |
| Fermt3 (fermitin family member 3) | 1 | 0.14 | 1.61 | 1.86 | enough cells to score | inactive |
| Kcnj15 | 1 | -0.81 | 1.35 | 1.4 | enough cells to score | inactive |
| Ccdc77 (coiled-coil domain containing 77) | 1 | -0.74 | 1.3 | 1.25 | enough cells to score | inactive |
| Slco6b1 | 1 | – | 1.5 | 1.23 | fewer than 50 cells per well; well left out of scoring | inactive |
| Fxyd4 (FXYD domain-containing ion transport regulator 4) | 1 | 2.07 | 1.88 | 1.8 | enough cells to score | inactive |
| Mlc1 | 1 | 1.35 | 1.6 | 1.53 | enough cells to score | inactive |
| Lama3 (laminin, alpha 3) | 1 | 0.6 | 1.57 | 1.44 | enough cells to score | inactive |
| Or13j1 (olfactory receptor family 13 subfamily J member 1) | 1 | – | 1.65 | 1.5 | fewer than 50 cells per well; well left out of scoring | inactive |
| Gen1 (GEN1, Holliday junction 5' flap endonuclease) | 1 | 0.27 | 1.39 | 1.51 | enough cells to score | inactive |
| Pik3r5 (phosphoinositide-3-kinase regulatory subunit 5) | 1 | 0.85 | 1.59 | 1.46 | enough cells to score | inactive |
| Pbrm1 (polybromo 1) | 1 | -0.47 | 1.32 | 1.41 | enough cells to score | inactive |
| Natd1 (N-acetyltransferase domain containing 1) | 1 | -0.07 | 1.62 | 1.54 | enough cells to score | inactive |
| Gpd1 (glycerol-3-phosphate dehydrogenase 1 (soluble)) | 1 | 0.27 | 1.41 | 1.47 | enough cells to score | inactive |
| Mrgpra3 (MAS-related GPR, member A3) | 1 | -0.39 | 1.73 | 1.52 | enough cells to score | inactive |
| Ms4a6b (membrane-spanning 4-domains, subfamily A, member 6B) | 1 | 0.47 | 1.53 | 1.38 | enough cells to score | inactive |
| Dhrs4 (dehydrogenase/reductase 4) | 1 | 2.01 | 1.84 | 1.86 | enough cells to score | inactive |
| Chchd2l2 | 1 | -1.85 | 1.29 | 1.21 | enough cells to score | active |
| Hook1 (hook microtubule tethering protein 1) | 1 | 0.92 | 1.83 | 1.63 | enough cells to score | inactive |
| Adgrf1 (adhesion G protein-coupled receptor F1) | 1 | 0.74 | 1.56 | 1.74 | enough cells to score | inactive |
| Dlat (dihydrolipoamide S-acetyltransferase) | 1 | – | 1.2 | 1.09 | fewer than 50 cells per well; well left out of scoring | inactive |
| Vps37c (vacuolar protein sorting 37C) | 1 | 1.63 | 1.66 | 1.58 | enough cells to score | inactive |
| Vash2 (vasohibin 2) | 1 | -0.7 | 1.44 | 1.47 | enough cells to score | inactive |
| Ptbp2 (polypyrimidine tract binding protein 2) | 1 | – | 1.33 | 1.24 | fewer than 50 cells per well; well left out of scoring | inactive |
| Mrps18b (mitochondrial ribosomal protein S18B) | 1 | -1.16 | 1.61 | 1.4 | enough cells to score | inactive |
| Hivep3 | 1 | -0.48 | 1.36 | 1.33 | enough cells to score | inactive |
| Alox12 (arachidonate 12-lipoxygenase) | 1 | -0.81 | 1.52 | 1.52 | enough cells to score | inactive |

6 entries from above, set out differently:
gene knocked down | pool no. | p65 translocation robust z-score | nuclear/cytoplasmic p65 ratio, rep 1 | nuclear/cytoplasmic p65 ratio, rep 2 | low cell count flag | call
Adgrf1 (adhesion G protein-coupled receptor F1) | 1 | 0.74 | 1.56 | 1.74 | enough cells to score | inactive
Dlat (dihydrolipoamide S-acetyltransferase) | 1 | – | 1.2 | 1.09 | fewer than 50 cells per well; well left out of scoring | inactive
Vps37c (vacuolar protein sorting 37C) | 1 | 1.63 | 1.66 | 1.58 | enough cells to score | inactive
Vash2 (vasohibin 2) | 1 | -0.7 | 1.44 | 1.47 | enough cells to score | inactive
Ptbp2 (polypyrimidine tract binding protein 2) | 1 | – | 1.33 | 1.24 | fewer than 50 cells per well; well left out of scoring | inactive
Mrps18b (mitochondrial ribosomal protein S18B) | 1 | -1.16 | 1.61 | 1.4 | enough cells to score | inactive
